Laboratory results taken from patent US4194006A, “Therapeutic application of acetyl-d,l-carnitine and other acyl derivatives of d,l-carnitine” (priority 1977, dated 1980).
For at least one compound, name, drawing or mass did not settle the structure. Some entries repeat one wording, which the source may state once for all of them.

Legend:
[1] = test system: adrenaline-induced toxicity; experiment: antagonism to adrenaline-induced toxicity; format: in vivo, male albino Swiss mice; conditions: 250 mg/kg i.p. 30 minutes before adrenaline
Protocol: The antagonism to adrenaline-induced toxicity was also investigated with the following results. Groups of ten male albino Swiss mice were injected with adrenaline (tartrate) intraperitoneally at progressive logarithmic doses. Other similar groups of animals were injected with 250 mg/kg of the compounds under examination via the same route, 30 minutes before adrenaline administration. Mortality was assessed by means of the Litchfield and Wilcoxon method 36 hours after adrenaline administration.

heart homogenates = experiment: oxygen consumption (Q O2) in heart homogenates with and without added CoA; format: biochemical; conditions: for Q O2: compound 10^-3 M
isolated rabbit hearts = experiment: cardiokinetic effect on isolated heart (Langendorff): contractile force after anoxia, positive inotropic effect; conditions: equal concentrations in the perfusion fluid; Student's t test
Protocol: The cardiokinetic effect on isolated heart was also investigated as follows. Rabbit hearts isolated by the Langendorff method were perfused with oxygenized ringer solution at 38.2° C. The isometric contractions, electrocardiogram and coronary flow were recorded using a "Battaglia-Rangoni" polygraph. By removing the oxygen from the perfusion fluid, metabolic damage was induced in the cardia muscle, up to an 80% reduction in the cardiac contractile force.
Under these conditions of prolonged anoxia the aerobic glycolysis of the myocardium is slowed down, accompanied by the storage of acid catabolites due to both the accumulation of pyruvic acid and its conversion to lactic acid which cannot be utilized because of the depression of pyridine enzymes, such as LDH (lactodehydrogenase). This has repercussions on the anaerobic glycolysis affecting an ever increasing number of enzymes, accompanied by a progressive and increasingly critical exhaustion of the myocardium. Thus a whole series of cardiac muscle fatigue levels occurs which can be observed by the behavior of the examined parameters, namely the contractile force, coronary flow, heart rate and cardiac rhythm. […]
Table 3 below gives the percentage values of the contractile force of the heart, showing a positive inotropic effect, calculated after 10 minutes from the interruption of the anoxic period (myocardial restoration).

female rats = experiment: antifatigue effect: rota-rod; format: in vivo, rat; conditions: i.p., X^2 test
Protocol: The antifatigue effect was also examined with the following results. The antifatigue effect was investigated by administering the compounds of the formula (I) according to the present application to female rats intraperitoneally in saline solution and saline solution alone to the controls by the same route. Every 15 minutes (sessions) after treatment, the animals were placed on a 6 cm diameter rod, rotating at 16 r.p.m. The percentage of the animals capable of staying on the rota-rod for a duration of more than 180 seconds was then recorded.

Compound	antagonism to adrenaline-induced toxicity [1]	dependence of oxygen consumption on CoA additions (heart homogenates; Table 1)	oxygen consumption in heart homogenates, compared with d,l-carnitine (heart homogenates; Table 1)	Q O2 (heart homogenates; added CoA 0) [μlO2 /mg protein/hr.]	Q O2 (heart homogenates; added CoA 2 × 10^-6 M) [μlO2 /mg protein/hr.]	Q O2 (heart homogenates; added CoA 4 × 10^-6 M) [μlO2 /mg protein/hr.]	Q O2 (heart homogenates; added CoA 8 × 10^-7 M) [μlO2 /mg protein/hr.]	positive inotropic effect (isolated rabbit hearts)	antifatigue effect (female rats)
CCCC(=O)OC(CC(=O)[O-])C[N+](C)(C)C (racemic) [butyryl-d,l-carnitine]	antagonize adrenaline-induced toxicity to a greater degree than d,l-carnitine	–	–	–	–	–	–	–	–
CC(=O)OC(CC(=O)[O-])C[N+](C)(C)C (racemic) [acetyl-d,l-carnitine]	antagonize adrenaline-induced toxicity to a greater degree than d,l-carnitine	independent from CoA additions	markedly greater than oxygen consumption in the presence of d,l-carnitine	24.3	23.6	24.8	23.6	greater positive inotropic effect than that induced by d,l-carnitine	significantly greater antifatigue effect than that displayed by the other compounds under examination
CCC(=O)OC(CC(=O)[O-])C[N+](C)(C)C (racemic) [propionyl-d,l-carnitine]	antagonize adrenaline-induced toxicity to a greater degree than d,l-carnitine	–	–	–	–	–	–	greater positive inotropic effect than that induced by d,l-carnitine	–
CC(=O)CC(=O)OC(CC(=O)[O-])C[N+](C)(C)C (racemic) [acetoacetyl-d,l-carnitine]	antagonize adrenaline-induced toxicity to a greater degree than d,l-carnitine	–	–	–	–	–	–	–	–
